Values from PubChem BioAssay AID686938 (Drosophila RNAi Screening Center, 2013).
The screen tested about 23,000 reagents; below is an unselected part of those with a known target gene and a result. Over the whole deposit, 75 (0.33%) were called active. 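Raw plate signals without normalisation; calls rest on plate z-scores that were not deposited; ratio present for only 364 wells.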 The numbers tell different reagents against one gene apart. Names joined by + are all predicted targets of the reagent. The record does not give: the dose of the treatment.

- Assay: 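Fly genes required for calcium entry once internal stores are emptied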 (primary screen)
- System: Drosophila S2R+ cells
- Reagents: long dsRNA against Drosophila genes, about 0.25 µg dsRNA per well, roughly 10,000 cells
- Duration: 5 days of knock-down before the calcium assay
- Treatment: thapsigargin (SERCA pump blocker) to empty calcium stores; entry signal taken 4 min after adding it
- Measurement: 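Per-well fluo-4 fluorescence in two replicates, unnormalised, measured in resting cells and 4 min after store depletion by the SERCA blocker thapsigargin; ratio of the two present in few wells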
- Reading the numbers: calcium entry signal: higher = stronger calcium signal after store depletion; resting calcium signal: higher = higher resting calcium signal
- Rule for the call: 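Hit if the duplicate-averaged plate z-score for entry over resting signal is under −3; wells with weak total dye signal (Fmax z < −2) or more than 5 off-targets removed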
- Meaning of the calls: active = strongly reduced calcium entry; inactive = no strong reduction

Target gene	reagent	calcium entry signal, replicate 1 (fluorescence units)	calcium entry signal, replicate 2 (fluorescence units)	resting calcium signal, replicate 1 (fluorescence units)	resting calcium signal, replicate 2 (fluorescence units)	outcome
CG7239	1	3.94e7		2.24e7		inactive
CG7239	2	5.33e7	3.12e7	2.36e7	1.36e7	inactive
drl	1	3.94e7		2.00e7		inactive
Gtpx	1	3.63e7	2.46e7	2.57e7	1.17e7	inactive
Gtpx	2	2.23e7	6.47e7	1.12e7	2.67e7	inactive
l(2)k09848	1	2.43e7		1.47e7		inactive
CG1999	1	4.27e7	4.35e7	1.89e7	2.11e7	inactive
Mal-B1	1	3.16e7	3.29e7	1.63e7	1.59e7	inactive
Fib	1	2.37e7	2.57e7	1.48e7	1.59e7	inactive
CG14543	1	2.56e7	2.14e7	1.45e7	1.08e7	inactive
CG17985	1	4.21e7	4.01e7	1.89e7	1.58e7	inactive
CG31189	1	3.82e7	4.35e7	6.29e7	2.13e7	inactive
CG30429	1	3.23e7	4.45e7	1.62e7	2.08e7	inactive
CG1951	1	3.08e7	3.08e7	1.37e7	1.55e7	inactive
asRNA:CR43433 + Rbp6	1	3.58e7	4.64e7	1.85e7	2.44e7	inactive
Mesh1	1	2.69e7	3.42e7	1.55e7	1.57e7	inactive
CR42785	1	1.90e7	3.30e7	1.07e7	1.50e7	inactive
gnu	1	2.53e7	3.74e7	1.27e7	2.48e7	inactive
T3dh + pgc	1	2.99e7		1.44e7		inactive
osy	1	2.82e7	5.79e7	1.59e7	2.47e7	inactive
osy	2	2.80e7	5.32e7	1.55e7	2.48e7	inactive
osy	3	2.68e7	3.33e7	1.23e7	1.59e7	inactive
CG6026	1	2.50e7	2.66e7	3.22e7	1.26e7	inactive
CG16865	1	4.14e7	3.00e7	1.83e7	1.41e7	inactive
